Test results taken from the supplement of paper PMC11006884.
Most of the targets with a hit are listed elsewhere, so they are rarer here than in the full data. This is a noisy data set. This is a selection; strong and weak results do not stand in their true shares.

Sequences of proteins named here, by UniProt entry; tags and fusion partners are left off. A change or cut given only in a name is not applied to a line headed by its entry.
UniProt P49368: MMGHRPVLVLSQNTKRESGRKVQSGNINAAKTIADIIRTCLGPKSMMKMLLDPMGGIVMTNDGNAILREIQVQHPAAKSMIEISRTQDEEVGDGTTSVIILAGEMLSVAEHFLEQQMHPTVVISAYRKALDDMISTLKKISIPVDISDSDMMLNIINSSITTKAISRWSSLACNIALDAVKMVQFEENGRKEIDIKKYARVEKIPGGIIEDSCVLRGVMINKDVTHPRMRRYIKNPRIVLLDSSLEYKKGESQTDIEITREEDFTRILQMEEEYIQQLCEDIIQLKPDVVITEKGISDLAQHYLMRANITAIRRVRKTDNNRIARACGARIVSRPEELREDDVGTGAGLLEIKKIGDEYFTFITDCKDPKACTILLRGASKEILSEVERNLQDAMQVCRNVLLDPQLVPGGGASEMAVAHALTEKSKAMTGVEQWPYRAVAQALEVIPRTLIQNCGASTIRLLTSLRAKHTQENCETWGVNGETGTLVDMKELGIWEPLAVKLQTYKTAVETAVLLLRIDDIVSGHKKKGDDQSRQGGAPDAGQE
UniProt P48506: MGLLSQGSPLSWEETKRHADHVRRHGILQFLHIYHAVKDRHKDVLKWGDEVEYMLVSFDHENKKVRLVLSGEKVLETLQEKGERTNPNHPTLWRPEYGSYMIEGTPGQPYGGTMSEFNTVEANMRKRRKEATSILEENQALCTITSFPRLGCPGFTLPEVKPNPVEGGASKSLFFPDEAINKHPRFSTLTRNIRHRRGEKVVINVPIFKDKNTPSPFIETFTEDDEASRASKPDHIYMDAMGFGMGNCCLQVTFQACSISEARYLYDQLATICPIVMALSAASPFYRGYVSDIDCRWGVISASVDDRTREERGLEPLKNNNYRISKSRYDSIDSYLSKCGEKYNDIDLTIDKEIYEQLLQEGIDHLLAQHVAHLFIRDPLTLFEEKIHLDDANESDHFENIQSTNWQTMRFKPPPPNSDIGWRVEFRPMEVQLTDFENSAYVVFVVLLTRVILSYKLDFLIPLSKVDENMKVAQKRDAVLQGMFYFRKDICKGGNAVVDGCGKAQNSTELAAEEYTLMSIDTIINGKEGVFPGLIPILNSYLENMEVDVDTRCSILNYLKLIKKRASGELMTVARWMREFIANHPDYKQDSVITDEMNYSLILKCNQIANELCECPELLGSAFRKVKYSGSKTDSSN
UniProt P46109: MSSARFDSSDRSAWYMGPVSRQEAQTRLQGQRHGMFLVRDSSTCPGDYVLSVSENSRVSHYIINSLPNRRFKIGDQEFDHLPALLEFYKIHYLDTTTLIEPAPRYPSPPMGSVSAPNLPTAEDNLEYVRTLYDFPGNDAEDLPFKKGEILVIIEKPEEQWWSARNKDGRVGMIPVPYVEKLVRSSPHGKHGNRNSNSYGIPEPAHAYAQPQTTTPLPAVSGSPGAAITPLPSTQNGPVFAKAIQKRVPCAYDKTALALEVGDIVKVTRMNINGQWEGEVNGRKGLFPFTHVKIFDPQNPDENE
UniProt P49848, whole entry: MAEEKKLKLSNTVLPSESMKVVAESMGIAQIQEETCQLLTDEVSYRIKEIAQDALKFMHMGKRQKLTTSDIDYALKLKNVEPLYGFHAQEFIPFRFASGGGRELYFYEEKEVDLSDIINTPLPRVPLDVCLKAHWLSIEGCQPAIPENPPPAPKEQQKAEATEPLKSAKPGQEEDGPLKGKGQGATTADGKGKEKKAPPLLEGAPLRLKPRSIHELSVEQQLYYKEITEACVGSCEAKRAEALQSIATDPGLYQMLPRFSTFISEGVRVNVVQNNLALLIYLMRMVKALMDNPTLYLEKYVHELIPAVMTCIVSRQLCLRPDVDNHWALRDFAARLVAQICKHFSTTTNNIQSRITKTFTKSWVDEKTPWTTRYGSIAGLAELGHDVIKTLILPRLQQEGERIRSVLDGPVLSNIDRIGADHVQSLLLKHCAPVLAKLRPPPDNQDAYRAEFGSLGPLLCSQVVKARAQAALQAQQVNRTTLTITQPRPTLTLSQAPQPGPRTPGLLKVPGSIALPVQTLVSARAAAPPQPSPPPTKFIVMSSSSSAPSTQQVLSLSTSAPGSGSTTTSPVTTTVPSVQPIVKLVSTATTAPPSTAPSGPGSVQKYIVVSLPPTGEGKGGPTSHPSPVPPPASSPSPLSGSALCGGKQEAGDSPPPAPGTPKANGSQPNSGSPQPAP
UniProt P49821, whole entry, looked up: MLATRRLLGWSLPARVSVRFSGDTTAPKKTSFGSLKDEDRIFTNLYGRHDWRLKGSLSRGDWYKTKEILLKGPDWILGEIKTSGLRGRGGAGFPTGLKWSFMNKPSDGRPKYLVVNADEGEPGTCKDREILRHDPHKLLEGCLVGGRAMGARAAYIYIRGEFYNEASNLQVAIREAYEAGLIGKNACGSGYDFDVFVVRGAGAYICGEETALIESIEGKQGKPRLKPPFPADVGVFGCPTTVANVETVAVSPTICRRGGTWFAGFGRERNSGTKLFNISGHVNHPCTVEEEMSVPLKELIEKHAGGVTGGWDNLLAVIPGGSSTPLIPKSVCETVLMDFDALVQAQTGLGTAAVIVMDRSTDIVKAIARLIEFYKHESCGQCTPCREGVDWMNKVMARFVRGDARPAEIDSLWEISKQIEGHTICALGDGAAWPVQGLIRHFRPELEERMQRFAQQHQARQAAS
UniProt P49841: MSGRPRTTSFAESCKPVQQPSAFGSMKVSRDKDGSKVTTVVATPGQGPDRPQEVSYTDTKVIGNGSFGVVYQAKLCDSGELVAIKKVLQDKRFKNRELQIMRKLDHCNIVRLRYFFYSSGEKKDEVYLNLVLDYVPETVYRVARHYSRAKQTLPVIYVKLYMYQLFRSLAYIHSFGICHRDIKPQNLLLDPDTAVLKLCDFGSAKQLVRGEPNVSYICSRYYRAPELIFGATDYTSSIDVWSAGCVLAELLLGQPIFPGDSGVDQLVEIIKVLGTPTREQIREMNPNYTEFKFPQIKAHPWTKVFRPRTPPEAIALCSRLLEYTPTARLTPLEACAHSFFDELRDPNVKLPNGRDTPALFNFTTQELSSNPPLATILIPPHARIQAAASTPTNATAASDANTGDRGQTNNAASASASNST
UniProt P49915: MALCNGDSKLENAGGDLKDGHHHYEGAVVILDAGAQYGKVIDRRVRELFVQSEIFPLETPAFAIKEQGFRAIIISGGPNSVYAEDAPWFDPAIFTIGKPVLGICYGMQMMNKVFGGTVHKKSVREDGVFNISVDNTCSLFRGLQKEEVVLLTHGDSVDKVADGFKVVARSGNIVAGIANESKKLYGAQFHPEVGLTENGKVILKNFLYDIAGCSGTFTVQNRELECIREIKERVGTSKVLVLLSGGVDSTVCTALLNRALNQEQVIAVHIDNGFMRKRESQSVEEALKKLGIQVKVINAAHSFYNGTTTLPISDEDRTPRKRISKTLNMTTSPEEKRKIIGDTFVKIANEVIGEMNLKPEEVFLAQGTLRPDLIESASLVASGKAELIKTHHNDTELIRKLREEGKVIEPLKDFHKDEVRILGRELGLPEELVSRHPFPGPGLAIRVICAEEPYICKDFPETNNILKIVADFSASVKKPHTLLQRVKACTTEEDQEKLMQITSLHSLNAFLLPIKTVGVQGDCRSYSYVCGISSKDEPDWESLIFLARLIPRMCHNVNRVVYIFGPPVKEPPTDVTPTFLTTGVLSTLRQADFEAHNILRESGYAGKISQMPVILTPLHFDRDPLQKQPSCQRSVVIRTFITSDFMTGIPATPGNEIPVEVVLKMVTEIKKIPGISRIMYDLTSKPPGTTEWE
UniProt P49336: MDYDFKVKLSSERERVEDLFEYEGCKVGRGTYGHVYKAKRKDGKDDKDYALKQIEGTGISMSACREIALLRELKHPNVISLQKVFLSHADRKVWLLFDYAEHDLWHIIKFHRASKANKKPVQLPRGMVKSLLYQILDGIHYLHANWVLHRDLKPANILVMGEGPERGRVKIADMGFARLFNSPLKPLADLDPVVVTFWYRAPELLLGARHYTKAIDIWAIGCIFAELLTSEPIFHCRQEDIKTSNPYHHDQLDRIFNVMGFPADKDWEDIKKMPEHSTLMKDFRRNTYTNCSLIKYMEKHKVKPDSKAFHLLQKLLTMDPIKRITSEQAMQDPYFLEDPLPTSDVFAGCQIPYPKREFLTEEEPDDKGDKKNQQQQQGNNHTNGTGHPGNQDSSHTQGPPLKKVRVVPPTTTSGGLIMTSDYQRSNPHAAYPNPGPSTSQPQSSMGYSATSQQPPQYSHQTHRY
UniProt P50991: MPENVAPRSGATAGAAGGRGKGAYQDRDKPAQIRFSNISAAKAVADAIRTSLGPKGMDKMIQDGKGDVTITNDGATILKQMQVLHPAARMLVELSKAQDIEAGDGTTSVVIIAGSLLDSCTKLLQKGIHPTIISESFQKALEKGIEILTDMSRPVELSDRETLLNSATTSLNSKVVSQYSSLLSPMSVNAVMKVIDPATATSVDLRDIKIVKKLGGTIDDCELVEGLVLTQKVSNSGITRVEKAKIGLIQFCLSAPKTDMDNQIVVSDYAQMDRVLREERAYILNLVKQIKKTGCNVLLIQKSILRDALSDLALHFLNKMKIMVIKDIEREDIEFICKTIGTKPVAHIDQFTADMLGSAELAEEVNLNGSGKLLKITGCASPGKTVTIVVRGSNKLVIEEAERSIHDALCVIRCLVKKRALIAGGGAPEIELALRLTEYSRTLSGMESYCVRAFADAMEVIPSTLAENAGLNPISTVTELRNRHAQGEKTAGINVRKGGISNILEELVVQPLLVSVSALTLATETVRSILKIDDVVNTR
UniProt P45985: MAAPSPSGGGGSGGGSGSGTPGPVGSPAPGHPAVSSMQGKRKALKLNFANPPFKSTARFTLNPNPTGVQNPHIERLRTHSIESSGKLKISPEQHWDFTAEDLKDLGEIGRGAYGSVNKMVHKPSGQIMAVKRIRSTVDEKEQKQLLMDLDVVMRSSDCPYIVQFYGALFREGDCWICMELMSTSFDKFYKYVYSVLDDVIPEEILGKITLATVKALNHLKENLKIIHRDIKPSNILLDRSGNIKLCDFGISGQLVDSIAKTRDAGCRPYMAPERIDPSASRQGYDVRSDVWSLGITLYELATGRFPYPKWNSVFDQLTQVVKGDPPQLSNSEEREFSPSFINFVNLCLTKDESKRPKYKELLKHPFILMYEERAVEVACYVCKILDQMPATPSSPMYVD
UniProt P48059, whole entry, looked up: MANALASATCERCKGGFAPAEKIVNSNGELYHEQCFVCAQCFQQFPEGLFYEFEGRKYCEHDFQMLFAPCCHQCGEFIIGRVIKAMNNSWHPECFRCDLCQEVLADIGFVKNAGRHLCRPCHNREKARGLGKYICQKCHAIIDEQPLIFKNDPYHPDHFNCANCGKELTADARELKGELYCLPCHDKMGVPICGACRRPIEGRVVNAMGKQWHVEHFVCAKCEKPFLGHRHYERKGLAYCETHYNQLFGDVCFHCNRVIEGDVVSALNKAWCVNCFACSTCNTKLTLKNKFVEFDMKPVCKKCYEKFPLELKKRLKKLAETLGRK
UniProt P49591: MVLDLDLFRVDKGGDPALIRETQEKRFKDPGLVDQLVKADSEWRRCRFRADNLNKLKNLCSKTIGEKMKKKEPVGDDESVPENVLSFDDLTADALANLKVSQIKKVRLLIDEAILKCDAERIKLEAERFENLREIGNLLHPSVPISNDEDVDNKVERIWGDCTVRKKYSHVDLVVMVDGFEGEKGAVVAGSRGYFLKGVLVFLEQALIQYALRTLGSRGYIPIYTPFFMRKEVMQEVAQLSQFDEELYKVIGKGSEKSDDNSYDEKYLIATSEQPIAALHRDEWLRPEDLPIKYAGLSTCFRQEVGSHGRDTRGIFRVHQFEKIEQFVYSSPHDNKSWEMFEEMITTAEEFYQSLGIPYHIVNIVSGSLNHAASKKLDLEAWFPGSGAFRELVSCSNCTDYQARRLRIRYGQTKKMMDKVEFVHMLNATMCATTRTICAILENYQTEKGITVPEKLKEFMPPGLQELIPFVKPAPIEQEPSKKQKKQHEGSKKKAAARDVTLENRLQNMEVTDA
UniProt P50579: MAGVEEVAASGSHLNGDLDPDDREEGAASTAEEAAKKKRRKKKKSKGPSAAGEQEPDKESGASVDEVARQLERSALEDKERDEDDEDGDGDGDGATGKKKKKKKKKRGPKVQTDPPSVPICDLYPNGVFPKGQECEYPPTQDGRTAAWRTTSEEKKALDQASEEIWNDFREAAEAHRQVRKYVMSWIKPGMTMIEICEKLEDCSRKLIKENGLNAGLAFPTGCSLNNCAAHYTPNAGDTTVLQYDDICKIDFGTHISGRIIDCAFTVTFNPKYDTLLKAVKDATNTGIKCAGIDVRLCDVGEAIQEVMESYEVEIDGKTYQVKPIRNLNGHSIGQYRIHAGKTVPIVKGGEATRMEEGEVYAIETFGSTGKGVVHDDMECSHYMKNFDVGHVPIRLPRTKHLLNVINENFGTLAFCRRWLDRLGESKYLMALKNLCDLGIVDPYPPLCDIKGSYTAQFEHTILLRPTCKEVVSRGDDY

compound: COC(=O)/C=C/c1ccccc1 [methyl cinnamate]; assay: log2 ratio of iodoacetamide-alkyne labeling of the cysteine site, DMSO over compound (competition); higher = stronger covalent engagement of the cysteine by the compound, active = 1 or more; conditions: 500 µM; treatment time 1 h; system: HEK293T cell lysate
How it was run: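 HEK293T lysate (2 mg/mL) was incubated with electrophile (500 µM) or vehicle for 1 h at ambient temperature and then with iodoacetamide alkyne for 1 h. Labelled proteins were clicked to sCIP-TMT reagents, pooled, digested, enriched on streptavidin and measured by Orbitrap Eclipse LC-MS/MS with FAIMS, with FragPipe quantification. The per-cysteine log2 competition ratio is mean control-channel reporter intensity over mean compound-channel reporter intensity. Across three replicates with duplicate channels, cysteines quantified in only one replicate were excluded.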

log2 ratio of iodoacetamide-alkyne labeling, inactive:
CCT3 C455 (UniProt P49368) 0.149
GCLC C553 (UniProt P48506) 0.156
CRKL C249 (UniProt P46109) 0.364
TAF6 C431 (UniProt P49848) -0.0424
NDUFV1 C425 (UniProt P49821) 0.208
UniProt P49841_C14 0.232
GMPS C554 (UniProt P49915) -0.0187
FASN C1992 (UniProt P49327) 0.124
CDK8 C25 (UniProt P49336) 0.0754
MKI67 C1843 (UniProt P46013) 0.128
CCT4 C120 (UniProt P50991) 0.121
UniProt P45985_C246 -0.0533
NUP153 C148 (UniProt P49790) -0.0245
PREP C57 (UniProt P48147) 0.143
RANBP2 C581 (UniProt P49792) 0.247
GMPS C4 (UniProt P49915) 0.247
PEX5 C11 (UniProt P50542) 0.0294
LIMS1 C138 (UniProt P48059) 0.226
UniProt P49591_C300 0.0914
RANBP2 C82 (UniProt P49792) -0.0816
FXR2 C87 (UniProt P51116) 0.00581
METAP2 C290 (UniProt P50579) 0.343

2 consecutive entries out of the list so far, quoted:
log2 ratio of iodoacetamide-alkyne labeling, inactive:
UniProt P49841_C14 0.232
GMPS C554 (UniProt P49915) -0.0187
